Reference: patent US20070054873A1, “Glucocorticoid modulation of nucleic acid-mediated immune stimulation” (Protiva Biotherapeutics, Inc., priority 2005, published 2007)
At least one compound was matched to its structure with a doubt left.

Columns and labels:
[1] = system: human peripheral blood mononuclear cells (PBMC); experiment: In vitro cytokine response of human PBMC to Pro-1 SPLP; format: cell-based; conditions: dexamethasone added at pharmacological doses
[2] = system: cytokines such as IFN-α and IL-6; experiment: In vivo cytokine induction after intravenous Pro-1 SPLP in rodents/mice; conditions: mice pretreated with dexamethasone prior to Pro-1 SPLP
IFN-α = experiment: Phase I trial, serum IFN-α levels after Pro-1 SPLP infusion; format: in vivo, human (Stage IV metastatic melanoma patients); conditions: patients pretreated with dexamethasone, all Pro-1 SPLP doses tested
IL-6 = experiment: Phase I trial, serum IL-6 levels after Pro-1 SPLP infusion; format: in vivo, human (Stage IV metastatic melanoma patients); conditions: patients pretreated with dexamethasone, all Pro-1 SPLP doses tested

## C[C@@H]1C[C@H]2[C@@H]3CCC4=CC(=O)C=C[C@]4(C)[C@@]3(F)[C@@H](O)C[C@]2(C)[C@@]1(O)C(=O)CO [dexamethasone]
[1]
  inhibition of cytokine response to Pro-1 SPLP in human PBMC cultures: completely inhibited
[2]
  inhibition of cytokine response to Pro-1 SPLP: significantly inhibited
IFN-α
  serum levels of IFN-α following Pro-1 SPLP administration: either significantly reduced or completely abrogated
IL-6
  serum levels of IL-6 following Pro-1 SPLP administration: completely abrogated
